Source: the supplement of paper PMC12889115
Some of the results follow. These are raw signals, not scaled to a control.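 First-pass screen: polymyxin B was added at a level that permeabilizes the Salmonella outer membrane while sparing the inner membrane. DMSO wells, with and without polymyxin B, defined maximum growth. Because plates differed from one another, each plate's data were ranked separately and the compounds with the lowest OD600 were carried forward as hits.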

Tested on: Salmonella enterica serovar Typhimurium SL1344
Test: bacterial growth OD600 after 18 h with compound and polymyxin B; higher = more bacterial growth (less inhibition)
Conditions: 50 µM, Mueller-Hinton broth

CN(c1ncccc1CNC(=O)c1cccnc1)C1CCCCC1
bacterial growth OD600 (polymyxin B 1 µg/mL): 0.895

COc1cccc(C(=O)C2CCCN(Cc3ccc(OC)c(C)c3OC)C2)c1 (centres undefined)
bacterial growth OD600 (polymyxin B 1 µg/mL): 0.762

O=C(CCc1cnccn1)N1CCCC(CCc2cccc(C(F)(F)F)c2)C1 (centres undefined)
bacterial growth OD600 (polymyxin B 0.75 µg/mL): 0.555

CCOc1cc(CN2CCC3(CC2)c2ccccc2[C@@H](NC(=O)CC)[C@@H]3OCCOC)ccc1OC
bacterial growth OD600 (polymyxin B 0.75 µg/mL): 0.894

COc1ccc(OCC(=O)N2CCCC(CNC(=O)c3ccc(F)cc3)C2)cc1 (centres undefined)
bacterial growth OD600 (polymyxin B 1 µg/mL): 0.888

O=C(Cc1cccnc1)NCc1cccnc1Oc1cccc(C(F)(F)F)c1
bacterial growth OD600 (polymyxin B 0.75 µg/mL): 0.778

COCc1ccc(C(=O)Nc2ccc(-c3nc(CNC(=O)Cc4csc(C)n4)c(C)o3)cc2)o1
bacterial growth OD600 (polymyxin B 0.75 µg/mL): 0.839

CC(C(=O)N1CCC(CCC(=O)NCc2cccc(Cl)c2)CC1)n1cncn1 (centres undefined)
bacterial growth OD600 (polymyxin B 1 µg/mL): 0.92

CCC1C(=O)NCCN1c1ccc(-c2nc(CCCc3ccccc3)no2)cn1 (centres undefined)
bacterial growth OD600 (polymyxin B 0.75 µg/mL): 0.006
